This is one part of the list. Shown are side measurements of this screen, not its main read-out; they come without a call. Compounds called inactive in the main read-out are mostly missing here. The note in brackets gives the kind of curve behind each potency; many fits are weak.
Assay: qHTS Assay to Find Inhibitors of Chronic Active B-Cell Receptor Signaling
Conditions: ABC-DLBCL IkBa-CBG/CBR reporter, luminescence ratio (green luciferase fused to IkBa over red control in TMD8 lymphoma cells), 4 h
Outline: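 TMD8 ABC-DLBCL cells carrying doxycycline-inducible green luciferase fused to IkappaBalpha plus unfused red luciferase were exposed to compounds (up to 46 uM) for 4 hrs at 37C. Activity came from the overlap-corrected green/red luminescence ratio.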

[1] = measured here: CBR red luminescence, cell number
[2] = measured here: IkBa-CBG green luminescence

With `COc1ccc2c(COC(=O)c3n[nH]c4ccccc34)cc(=O)oc2c1` the AC50 [1] was 0.146 µM [falling, full curve, poor fit].

For `COc1cccc(Nc2nc(N)nc(C(F)(F)F)n2)c1`, the AC50 [1] was 2.24 µM [rising, partial curve, poor fit].

For `O=C(O)CCC(=O)NCc1ccc2[nH]c3c(c2c1)CCCC3`, the AC50 [1] was 13 µM [falling, partial curve].

With `Cc1ccc(-n2cc(CN(C)CCc3cn[nH]c3)c(-c3cccc(C)c3)n2)cc1` the AC50 [1] was 2.51 µM [rising, full curve, poor fit].

In the case of `Cc1cc(=O)[nH]c(N=N/C(=N/Nc2ccc(O)cc2)c2ccccc2)n1`, the AC50 [1] is reported as 10.3 µM [falling, single point] and the AC50 [2] is reported as 0.291 µM [rising, partial curve, poor fit].

For `Cc1nc(SCC(=O)N(CC(C)C)C2CCS(=O)(=O)C2)c2ccccc2n1` (centres undefined), the AC50 [1] was 20.6 µM [falling, partial curve].

For `Cc1cccc(NC(=O)/C(C#N)=C/c2cn(CC(=O)NCc3ccco3)c3ccccc23)c1C`, the AC50 [1] was 29.1 µM [rising, single point].

In the case of `O=C(Nc1cnc2ccccc2c1)N1CCCCC1`, the AC50 [1] is reported as 17.8 µM [falling, single point].

With `NC(=O)C1CCN(c2nc(-c3ccc(Br)cc3)cs2)CC1` the AC50 [1] was 32.6 µM [falling, partial curve, poor fit].

With `CCc1ccn2cc(-c3ccc4c(c3)OCO4)nc2c1` the AC50 [1] was 10 µM [falling, partial curve].

In the case of `CSc1ccccc1NC(=O)c1ccc(Cl)s1`, the AC50 [1] is reported as 29.1 µM [falling, single point].

For `O=C(CN1C(=O)NC2(CCc3ccccc32)C1=O)NCC(=O)Nc1ccc(F)cc1` (centres undefined), the AC50 [1] was 14.6 µM [rising, partial curve, poor fit].

For `CCSc1nc(=S)cc(C)[nH]1`, the AC50 [1] was 15.8 µM [rising, partial curve, poor fit] and the AC50 [2] was 12.6 µM [falling, partial curve, poor fit].

With `CSc1nc(N)n2nc(-c3ccc(Cl)cc3)cc2n1` the AC50 [1] was 1.41 µM [falling, full curve].

With `C=CCNC(=O)/C(C#N)=C/c1ccccc1OCc1ccc(C(=O)OC)cc1` the AC50 [1] was 14.6 µM [falling, partial curve] and the AC50 [2] was 32.6 µM [falling, partial curve, poor fit].

For `CCCn1nnnc1SCC(=O)N1CCOCC1`, the AC50 [1] was 0.631 µM [rising, partial curve, poor fit].

For `Cc1ccc([N+](=O)[O-])cc1NC(=O)c1ccc(-c2ccccc2)cc1`, the AC50 [1] was 4.11 µM [rising, single point].

With `Cc1ccc(-c2cc(-c3ccccc3)nc(NN)n2)cc1` the AC50 [1] was 17.8 µM [falling, single point].

With `COc1cc(-c2noc(C)c2C#CC2(N)CCCCC2)cc(OC)c1OC` the AC50 [1] was 12.6 µM [falling, single point] and the AC50 [2] was 22.4 µM [rising, partial curve, poor fit].

In the case of `COc1ccc(C2=C(C#N)C(=O)OC2)cc1`, the AC50 [1] is reported as 1.12 µM [rising, full curve, poor fit].

For `CC1CN(CCCCSc2ccccc2)CC(C)O1` (centres undefined), the AC50 [1] was 10 µM [rising, partial curve, poor fit].

With `COC(=O)c1ccc2c(c1)N(C)C(=O)CS2` the AC50 [1] was 5.8 µM [rising, single point].

For `S=c1[nH]nc(/C=C/c2ccccc2)o1`, the AC50 [1] was 35.5 µM [falling, single point].

For `O=C(NNc1nc(-c2ccccc2)cs1)c1cccs1`, the AC50 [1] was 14.1 µM [falling, single point].

In the case of `CC(=O)Nc1ccc(S(=O)(=O)NCCC(=O)OCc2nnc(-c3ccccc3)o2)cc1`, the AC50 [1] is reported as 14.6 µM [rising, partial curve].

With `CCCCc1cc(=O)oc2cc(C)cc(OCC(=O)NCc3ccccn3)c12` the AC50 [1] was 35.5 µM [falling, single point].

For `CSCCC(NC(=O)c1ccco1)C(=O)Nc1cc(C)ccn1` (centres undefined), the AC50 [1] was 25.9 µM [rising, single point].

In the case of `COc1cccc(C(=O)NCC(c2cccs2)N2CCOCC2)c1` (centres undefined), the AC50 [1] is reported as 25.9 µM [falling, single point].

For `CC1CCCN(c2sc(S(C)(=O)=O)nc2S(=O)(=O)c2ccc(Cl)cc2)C1` (centres undefined), the AC50 [1] was 11.2 µM [falling, partial curve].

With `Clc1c(CSc2nc3ccccc3o2)nc2ccccn12` the AC50 [1] was 0.651 µM [rising, full curve, poor fit].

With `CCCc1nn(C)c2c(=O)[nH]c(-c3cc(S(=O)(=O)N4CCN(C)CC4)ccc3OCC)nc12` the AC50 [1] was 0.708 µM [falling, full curve, poor fit].

In the case of `CC(C)c1ccc(/C=C2\SC(=S)N(CCC(=O)N3CCCCC3CCO)C2=O)cc1` (centres undefined), the AC50 [1] is reported as 1.12 µM [falling, full curve].

In the case of `COc1ccc(CCC(C)N2CCc3ccccc3C2)cc1` (centres undefined), the AC50 [1] is reported as 20 µM [rising, partial curve, poor fit].

For `Cc1cccn2c(=O)c3cc(C(=O)NC4CCCCCC4)sc3nc12`, the AC50 [1] was 6.31 µM [rising, single point].

For `CC(=O)Nc1ccc(C(=O)CN2C(=O)NC3(CCOc4ccccc43)C2=O)c(F)c1` (centres undefined), the AC50 [1] was 1.46 µM [rising, full curve, poor fit].

With `CCC(=O)Nc1ccc(C(=O)OCc2ccccc2)cc1` the AC50 [1] was 35.5 µM [rising, single point].

With `COc1cccc(C(=O)Nc2ccc(N3CCN(C(=O)c4ccco4)CC3)cc2)c1` the AC50 [1] was 35.5 µM [falling, single point].

For `O=C(c1ccc2c(=O)n(Cc3ccc(Cl)cc3)c(=S)[nH]c2c1)N1CCOCC1`, the AC50 [1] was 17.8 µM [falling, single point].

For `CC(=NNC(=O)c1ccc(NS(=O)(=O)c2cccs2)cc1)c1ccc(OCC(N)=O)cc1`, the AC50 [1] was 18.4 µM [falling, single point].

In the case of `CCOc1ccc(NC(=S)N2CCCN(Cc3cccc(Cl)c3)C2)cc1`, the AC50 [1] is reported as 35.5 µM [falling, single point].

With `CCOc1ncccc1C(=O)NCCc1c[nH]c2ccccc12` the AC50 [1] was 0.708 µM [falling, full curve, poor fit].

For `COc1cc(O)c(C(=O)/C=C/c2ccccc2)c(OC)c1`, the AC50 [1] was 12.6 µM [falling, single point] and the AC50 [2] was 12.6 µM [rising, partial curve, poor fit].

For `Cc1csc(=NC(=O)c2ccccc2)n1C`, the AC50 [1] was 6.51 µM [rising, single point].

In the case of `Cc1ccc2c(N)c(C#N)sc2n1`, the AC50 [1] is reported as 5.17 µM [falling, partial curve].

In the case of `N/C(Cc1cccc2ccccc12)=N\OC(=O)COc1ccccc1`, the AC50 [1] is reported as 2.31 µM [rising, partial curve, poor fit].

With `CC1(C)C(=O)OC(c2cccn2-c2cccc([N+](=O)[O-])c2)C2(CCCCC2)C1=O` (centres undefined) the AC50 [1] was 29.1 µM [falling, single point].

In the case of `COc1ccc(OC)c(-c2cc(C3CCN(c4cc(Cl)nc(N)n4)CC3)[nH]n2)c1`, the AC50 [1] is reported as 3.55 µM [falling, partial curve, poor fit].

With `Cc1ccc(S(=O)(=O)N2CC=C(C(=O)NCCC(C)C)CC2)cc1` the AC50 [1] was 11.2 µM [rising, partial curve, poor fit].

In the case of `O=C(NN=C1CCCCCC1)c1ccc(Cl)s1`, the AC50 [1] is reported as 5.62 µM [falling, full curve].

For `Cc1cc(Nc2ccc([N+](=O)[O-])cc2)nc2ccccc12`, the AC50 [1] was 3.16 µM [rising, full curve].

With `Cc1cc(C)nc(SCc2nc(N)nc(-c3ccccc3O)n2)n1` the AC50 [1] was 32.6 µM [falling, single point].

For `Cc1cccn2c(=O)c(/C=C3\SC(=S)NC3=O)c(NCCCN3CCOCC3)nc12`, the AC50 [1] was 6.31 µM [rising, full curve, poor fit].

In the case of `Cc1cc(C)nc(S/C=C/C(=O)c2ccccc2)n1`, the AC50 [1] is reported as 35.5 µM [falling, single point].

With `CCOC(=O)c1c(CSC(=N)N)n(-c2ccc(C)cc2)c2cc(Br)c(OC(C)=O)cc12` the AC50 [1] was 20 µM [rising, single point].

For `CN1CCc2nc(SCC(=O)Nc3ccc(OC(F)(F)F)cc3)c(C#N)c(-c3cccs3)c2C1`, the AC50 [1] was 2.59 µM [falling, full curve, poor fit].

With `C=CCC(NC(C)c1ccccc1)c1ccco1` (centres undefined) the AC50 [1] was 20 µM [falling, single point].

For `CC(=O)c1sc(NC(=O)C2CSC3(C)CCC(=O)N23)nc1-c1ccccc1` (centres undefined), the AC50 [1] was 0.82 µM [falling, partial curve, poor fit] and the AC50 [2] was 9.2 µM [rising, partial curve, poor fit].

For `O=C(Nc1ccc2ccccc2c1)/C(=C\c1ccc2c(c1)OCO2)NC(=O)c1ccco1`, the AC50 [1] was 18.4 µM [rising, partial curve, poor fit].

With `CCc1c(C#N)c(N)nc(SCC(=O)OCc2ccccc2)c1C#N` the AC50 [1] was 3.55 µM [rising, full curve, poor fit].

For `Cc1cc(C)cc(NC(=O)CSc2ccc(-c3ccccn3)nn2)c1`, the AC50 [1] was 35.5 µM [rising, single point].

With `Cc1cccc(NC(=O)c2cc([N+](=O)[O-])ccc2NC2CCCCC2)c1` the AC50 [1] was 29.1 µM [rising, single point].

With `Cc1ccc(C(=O)/C=C/c2c(C)nn(-c3ccccc3)c2Cl)cc1` the AC50 [1] was 0.00411 µM [rising, full curve, poor fit].

For `C/C(=N\NC(=O)c1ccc(N/N=C(\C)c2ccncc2)cc1)c1ccncc1`, the AC50 [1] was 15.8 µM [falling, partial curve, poor fit].

Reference: PubChem BioAssay AID493014 (National Center for Advancing Translational Sciences (NCATS), 2011)
